According to paper PMC3962438:
These are yes or no findings as the source states them, for the method shown. Binding seen in cells or lysates may run through a third protein. Some binding calls cover weakened binding; strength is not graded here.

Chains of the proteins cited; added tags and fusions are not shown. Lines headed by an entry give the natural chain unless they say otherwise; changes in a name come on top.
UniProt O95684: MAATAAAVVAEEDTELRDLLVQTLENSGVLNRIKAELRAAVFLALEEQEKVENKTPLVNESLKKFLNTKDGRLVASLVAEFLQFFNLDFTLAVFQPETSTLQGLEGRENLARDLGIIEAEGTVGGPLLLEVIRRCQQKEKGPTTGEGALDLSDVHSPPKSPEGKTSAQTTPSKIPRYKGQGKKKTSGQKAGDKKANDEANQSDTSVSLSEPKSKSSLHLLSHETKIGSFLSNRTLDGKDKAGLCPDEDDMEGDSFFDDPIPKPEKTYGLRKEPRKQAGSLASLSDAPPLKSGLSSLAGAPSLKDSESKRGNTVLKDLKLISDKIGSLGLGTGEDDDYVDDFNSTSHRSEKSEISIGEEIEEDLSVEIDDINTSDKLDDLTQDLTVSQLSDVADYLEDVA
UniProt P11362: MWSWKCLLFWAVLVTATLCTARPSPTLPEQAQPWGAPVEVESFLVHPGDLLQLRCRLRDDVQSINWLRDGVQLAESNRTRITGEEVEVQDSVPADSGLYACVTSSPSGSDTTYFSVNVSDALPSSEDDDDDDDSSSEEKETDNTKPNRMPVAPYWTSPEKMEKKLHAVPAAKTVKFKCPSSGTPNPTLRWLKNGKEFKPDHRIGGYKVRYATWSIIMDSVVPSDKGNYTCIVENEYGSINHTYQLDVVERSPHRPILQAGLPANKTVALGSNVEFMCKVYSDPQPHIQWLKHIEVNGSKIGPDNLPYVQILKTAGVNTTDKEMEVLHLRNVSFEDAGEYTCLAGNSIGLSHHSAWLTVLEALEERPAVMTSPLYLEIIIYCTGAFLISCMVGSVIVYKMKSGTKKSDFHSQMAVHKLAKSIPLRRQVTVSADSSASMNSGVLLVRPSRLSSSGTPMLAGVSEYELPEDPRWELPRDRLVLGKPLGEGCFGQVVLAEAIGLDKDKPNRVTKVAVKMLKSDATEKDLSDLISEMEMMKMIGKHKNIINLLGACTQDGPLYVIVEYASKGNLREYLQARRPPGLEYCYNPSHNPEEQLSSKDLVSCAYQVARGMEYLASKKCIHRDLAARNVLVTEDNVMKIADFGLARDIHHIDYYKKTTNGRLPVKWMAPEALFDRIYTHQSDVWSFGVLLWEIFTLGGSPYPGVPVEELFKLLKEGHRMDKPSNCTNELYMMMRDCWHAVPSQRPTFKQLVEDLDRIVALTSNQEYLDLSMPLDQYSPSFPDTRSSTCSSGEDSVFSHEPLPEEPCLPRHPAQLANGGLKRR

Target: FOP-FGFR1 (wild-type MPN fusion), Myc-tagged and GFP-tagged copies, in vitro translated (human) (UniProt O95684+P11362)
Test: co-IP; constructs in vitro translated in reticulocyte lysate; GFP-tagged FOP-FGFR1 constructs immunoprecipitated, Myc-tagged FOP-FGFR1 constructs assessed in the IP

binding: binds
Substance: FOP-FGFR1 (wild-type MPN fusion), Myc-tagged and GFP-tagged copies, in vitro translated (from UniProt O95684 1-173; P11362 429-822)
